## Library screening results

Measurements from “University of Dundee, Small-Polar-MMV Screening Library” (2021), ChEMBL document CHEMBL3988442.

Mtb growth Cornell: 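Whole-cell assay for inhibitors of Mycobacterium tuberculosis growth, labelled Cornell in the record; the read-out is not stated. The concentration is filed as 10 mM, unlikely as a test dose, so the dose is not known. The record gives no direction; compounds strong in two other growth screens of this library score well above the rest, so higher reads as stronger inhibition. Size under these conditions: about 53,000 compounds, about 900 of them at 50% or above in at least one test.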
Mtb heat-shock: 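Assay on Mycobacterium tuberculosis, filed only as a heat shock assay from Cornell; the read-out is not stated. The concentration is filed as 10 mM, unlikely as a test dose, so the dose is not known. The record gives no direction; compounds that gave an IC50 in retests scored well above the rest, so higher reads as stronger inhibition. About 69,000 compounds were tested under these conditions; 1.4% (about 930) showed 50% or more at least once.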

Results are given as percent effect.
The controls that fix the scale are not given in the record; negative values are as filed.
This is an unselected part of the compounds tested.

{"compound": "CN(C)C1CCCN(C(=O)c2ccc3sc4c(c3c2)CCNC4=O)CC1", "stereo": "stereo unspecified", "Mtb growth Cornell": 13.06, "Mtb heat-shock": -0.4501}
{"compound": "O=C(NCC1CCOC1)c1cc(-c2ccc(F)cc2)[nH]n1", "stereo": "stereo unspecified", "Mtb growth Cornell": 21.47, "Mtb heat-shock": -3.871}
{"compound": "COc1ccccc1OCC(=O)NS(=O)(=O)c1cc(F)ccc1F", "Mtb heat-shock": 1.419}
{"compound": "O=C(NC1CCC1)C1=NOC2(CCN(Cc3ccccc3)C2)C1", "stereo": "stereo unspecified", "Mtb growth Cornell": -9.005, "Mtb heat-shock": -7.584}
{"compound": "Cn1cc(CNC(=O)NCCOc2ccc(F)c(F)c2)cn1", "Mtb growth Cornell": 10.7, "Mtb heat-shock": -10.93}
{"compound": "CN1CCC(c2cccc(Cc3ccc(F)cc3)n2)CC1", "Mtb growth Cornell": 20.23, "Mtb heat-shock": 18.36}
{"compound": "O=C(c1ccccc1)N1CC(C(=O)N2CCOCC2)C2(CCOCC2)C1", "stereo": "stereo unspecified", "Mtb growth Cornell": 8.58, "Mtb heat-shock": 19.86}
{"compound": "O=C(Nc1ccccc1F)C1CSCN1C(=O)CCc1ccco1", "stereo": "stereo unspecified", "Mtb growth Cornell": 0.3289, "Mtb heat-shock": -5.829}
{"compound": "COCCC(=O)N1CCCC([C@@H]2C[C@H](C(F)F)n3ncnc3N2)C1", "stereo": "stereo partly specified", "Mtb growth Cornell": 3.93, "Mtb heat-shock": -0.9277}
{"compound": "CC(C)c1noc(C(C)Nc2nccc(CCC(F)(F)F)n2)n1", "stereo": "stereo unspecified", "Mtb growth Cornell": 17.18, "Mtb heat-shock": -5.34}
{"compound": "Cc1cncc(C(=O)N2CCCC(C(=O)CCc3ccccc3)C2)c1", "stereo": "stereo unspecified", "Mtb growth Cornell": 3.136, "Mtb heat-shock": 5.642}
{"compound": "NS(=O)(=O)c1cccnc1Nc1cccc(Cl)c1Cl", "Mtb growth Cornell": 33.37, "Mtb heat-shock": 18.39}
{"compound": "O=C(NS(=O)(=O)Cc1cc(-c2ccccc2)no1)C1CCOCC1", "Mtb growth Cornell": 5.744, "Mtb heat-shock": 4.052}
{"compound": "CC(C)Oc1ccc(C(=O)Nc2nncs2)cn1", "Mtb growth Cornell": 7.538, "Mtb heat-shock": -1.442}
{"compound": "CS(=O)(=O)CCn1ccc(NC(=O)CCc2cccc(F)c2)n1", "Mtb growth Cornell": -59.64, "Mtb heat-shock": -8.002}
{"compound": "CCNC(=O)Cc1n[nH]c(-c2cncc(Br)c2)n1", "Mtb growth Cornell": -48.18, "Mtb heat-shock": -3.286}
{"compound": "CC(=O)N(Cc1ncc(C)o1)C1CCN(CCNC2CCCCC2)C1", "stereo": "stereo unspecified", "Mtb growth Cornell": -32.49, "Mtb heat-shock": -5.529}
{"compound": "CC(c1nc(C2CC2)no1)N1CCc2c(ncn2C)C1", "stereo": "stereo unspecified", "Mtb growth Cornell": 9.234, "Mtb heat-shock": -0.3784}
{"compound": "O=C(O)C(F)(F)F.[H][C@@]12COC[C@]1([H])[C@H](NC(=O)c1cccn1C)CN2Cc1ccsc1", "Mtb growth Cornell": 10.31, "Mtb heat-shock": -16.26}
{"compound": "Cc1c(C(N)=O)sc2nc(C(F)(F)F)ccc12", "Mtb growth Cornell": -13.67, "Mtb heat-shock": -18.66}
{"compound": "COC(=O)CN1CC2(CCNCC2)COc2ccccc2S1(=O)=O.O=C(O)C(F)(F)F", "Mtb growth Cornell": 18.86, "Mtb heat-shock": -24.15}
{"compound": "CCCC(=O)N1CCC2(CC1)CN(Cc1cccc(C)n1)C(=O)CO2", "Mtb heat-shock": -10.62}
{"compound": "CN1CCc2c(C#N)c(NCCc3ccccc3)n3cnnc3c2C1", "Mtb growth Cornell": 16.9, "Mtb heat-shock": -18.23}
{"compound": "CC(NC(=O)N1CCCN(C)CC1)c1ccc(S(N)(=O)=O)cc1", "stereo": "stereo unspecified", "Mtb heat-shock": 1.507}
{"compound": "Cc1cc(C(=O)NCc2ccnc(N3CCN(C)CC3)c2)sc1C", "Mtb heat-shock": -1.77}
{"compound": "CC(C)COCC(C)NC(=O)NCc1cccc(-n2cncn2)c1", "stereo": "stereo unspecified", "Mtb heat-shock": -7.847}
{"compound": "CCN(c1ccc(C(=O)Nc2c(C)nn(C(C)C)c2C)cc1)C(C)C", "Mtb growth Cornell": 10.81, "Mtb heat-shock": 12.13}
{"compound": "COC(=O)c1sccc1NC(=O)C1CCCN1C(=O)c1ccco1", "stereo": "stereo unspecified", "Mtb growth Cornell": -9.929, "Mtb heat-shock": 6.82}
{"compound": "Cc1oc(-c2nc(C#N)c(NC(C)(C)C)o2)cc1S(=O)(=O)N1CCCC1", "Mtb growth Cornell": 29.33, "Mtb heat-shock": 1.248}
{"compound": "OCCn1nccc1C1CCN(CCCOc2ccc(F)cc2)CC1", "Mtb growth Cornell": 12.14, "Mtb heat-shock": -19.3}
{"compound": "COCc1nccc(C2CCCN(Cc3ccccc3C#N)C2)n1", "stereo": "stereo unspecified", "Mtb growth Cornell": 6.959, "Mtb heat-shock": -13.65}
{"compound": "NC(=O)N1CCC(NCc2cc(C(F)(F)F)ccc2Cl)CC1", "Mtb growth Cornell": 7.002, "Mtb heat-shock": 1.51}
{"compound": "c1ccc(Cc2nnc(CN3CCCC3Cn3cccn3)o2)cc1", "stereo": "stereo unspecified", "Mtb growth Cornell": -30.71, "Mtb heat-shock": -10.42}
{"compound": "Cc1ncc(C(=O)N2C[C@H](CO)C[C@H](CN3CCOCC3)C2)c(=O)[nH]1", "Mtb heat-shock": -6.663}
{"compound": "CCNC(=O)NC(=O)CNC1(c2noc(C)n2)CCCC1", "Mtb growth Cornell": -6.648, "Mtb heat-shock": 1.715}
{"compound": "CC(C)c1ccc(C(O)CN2CCN(Cc3nccn3C)CC2)cc1", "stereo": "stereo unspecified", "Mtb heat-shock": 5.961}
{"compound": "O=C(O)C(F)(F)F.O=C(O)C(F)(F)F.[H][C@@]12CN(Cc3cncn3C)C[C@]1([H])OCCN2Cc1c(C)noc1C", "Mtb heat-shock": -21.37}
{"compound": "O=C(O)c1c[nH]c2cc(NS(=O)(=O)c3cc(F)ccc3Cl)ccc12", "Mtb heat-shock": 4.389}
{"compound": "CC(C)=CCN1CC2(CCN(Cc3c(F)cccc3F)CC2)CC1=O", "Mtb growth Cornell": 14.75, "Mtb heat-shock": 16.01}
{"compound": "CCc1nnc2n1CCN(c1nc(C)cc(N(C)C)n1)C2", "Mtb growth Cornell": 15.92, "Mtb heat-shock": -6.279}
{"compound": "COc1ccc(S(=O)(=O)NCCC(O)c2ccoc2)c(C)c1", "stereo": "stereo unspecified", "Mtb growth Cornell": 26.91, "Mtb heat-shock": 3.183}
{"compound": "Clc1ccccc1-c1nc(CNCCn2cccn2)cs1", "Mtb heat-shock": 54.38}

The first 4 entries again:

{"compound": "CN(C)C1CCCN(C(=O)c2ccc3sc4c(c3c2)CCNC4=O)CC1", "stereo": "stereo unspecified", "Mtb growth Cornell": 13.06, "Mtb heat-shock": -0.4501}
{"compound": "O=C(NCC1CCOC1)c1cc(-c2ccc(F)cc2)[nH]n1", "stereo": "stereo unspecified", "Mtb growth Cornell": 21.47, "Mtb heat-shock": -3.871}
{"compound": "COc1ccccc1OCC(=O)NS(=O)(=O)c1cc(F)ccc1F", "Mtb heat-shock": 1.419}
{"compound": "O=C(NC1CCC1)C1=NOC2(CCN(Cc3ccccc3)C2)C1", "stereo": "stereo unspecified", "Mtb growth Cornell": -9.005, "Mtb heat-shock": -7.584}